According to BigSolDB 2.1:

CC1=C(C(=O)O)N2C(=O)[C@@H](NC(=O)[C@H](N)c3ccccc3)[C@H]2SC1.O
solubility (mole fraction)
Settings	278.1 K	280.1 K	283.1 K	293.1 K	303.1 K	313.1 K	323.1 K
in acetonitrile	9.5e-06	1.52e-05	2.37e-05	–	–	–	–
in methanol	0.000235	0.000281	0.000354	0.000606	0.000951	–	–
in water	–	–	0.000533	0.000721	0.000826	0.00096	0.00125
